Library screen at single concentrations

Measurements from “University of Dundee, Small-Polar-MMV Screening Library” (2021), ChEMBL document CHEMBL3988442.

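Whole-cell growth test on Mycobacterium tuberculosis, read after 4 days in a medium based on cholesterol and the lipid DPPC; the read-out is not stated. Compounds at 50 µM. Direction is inferred from retests: higher values go with more growth inhibition. About 69,000 compounds were tested under these conditions; 0.54% (about 370) showed 50% or more at least once.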

Values are the deposited “Percent Effect”, in %.
How 0% and 100% were set is not recorded. Most values in the screen are low, and negative values occur.
Compounds were drawn at random from those tested, without regard to their results.
Two or more numbers in one place are separate tests of the same structure; such repeats can differ widely.

| structure | percent effect |
|---|---|
| `Cc1oc(C(=O)Nc2ccccc2F)cc1S(N)(=O)=O` | -12.35 and -33.16 |
| `Cc1nc(C2CCN(c3ccccc3)CC2)no1` | 38.12 |
| `CCC(O)CN1CCN(C(=O)c2cnc3n[nH]c(C)c3c2)CC1` (stereo unspecified) | -17.18 |
| `Cn1cc(CN2CCCCC2c2ccc(-c3cccc(Cl)c3)nc2)cn1` (stereo unspecified) | 10.43 |
| `COc1ccc(C(C#N)NC(=O)CC2=CCCCC2)c(OC)c1` (stereo unspecified) | -6.274 |
| `CN(C)CCN1CCCC12CCN(C(=O)c1cccnc1)CC2.O=C(O)C(F)(F)F.O=C(O)C(F)(F)F` | 8.975 |
| `O=C(CCCNC(=O)C1CC1)Nc1cnn(-c2ccccc2Cl)c1` | 1.735 |
| `CC(C)(C)C(Cn1ccnc1)NC(=O)NCc1ccco1` (stereo unspecified) | 3.959 |
| `Cc1cnc(CN(C)C2CCN(Cc3cnc(C)s3)C2)o1` (stereo unspecified) | -1.369 |
| `COCCC(=O)N1CCC(C(=O)c2cc(C)cnc2N)CC1` | 51.53 |
| `O=C(O)C(F)(F)F.[H][C@@]12CN(CC3CC3)C[C@@]1([H])N(Cc1cccc(F)c1)C(=O)CO2` | -10.99 |
| `CCc1noc(C)c1C(=O)N1CCC2(CCCN(CC(C)(C)C)C2=O)C1` (stereo unspecified) | 15.63 |
| `Cc1cccc(CN2CCc3[nH]nc(C(=O)N(C)C)c3C2)n1.O=C(O)C(F)(F)F` | 2.528 |
| `CCOC(=O)c1cc2c(=O)[nH]c(=O)n(CCc3ccccc3)c2nc1C` | -4.914 |
| `COCCN1CCCC12CCN(Cc1cccnc1OC)CC2.O=C(O)C(F)(F)F.O=C(O)C(F)(F)F` | -10.55 |
| `O=C1CCCN1c1cccc(N2CCC(NCCc3cscn3)CC2)c1` | 12.01 |
| `Cc1cccc2c1C(=O)NC1(CCOCC1)N2` | -0.2758 |
| `CN1CCC2(CCCN(c3nccc(C(F)(F)F)n3)C2)CC1.O=C(O)C(F)(F)F` | 18.99 |
| `[H][C@@]12C[C@H](C)O[C@]1([H])CCN(C(=O)CCOC)C2` | 1.434 and -2.388 |
| `COCCN(C)C(=O)c1nc2c(s1)CCCN2c1ncccn1` | 3.107 |
| `Cc1cc(C)n(CC2CCCCN2CC(=O)Nc2c(C)n[nH]c2C)n1` (stereo unspecified) | 12.45 |
| `COC(=O)c1cccn1C1CCN(S(=O)(=O)c2ccccc2)CC1` | 3.498 |
| `COCCn1cnc2ccc(NC(=O)c3c(C)noc3C)cc2c1=O` | -6.533 |
| `OCC1CCCCN1Cc1nc(Cc2cccc(F)c2)no1` (stereo unspecified) | 11.3 |
| `COc1ccc(F)c(F)c1CN1CCN(CC(C)C)C(=O)C1C` (stereo unspecified) | -41.76 |
| `Cc1ccc(CN(C)C(=O)NCC(=O)NC(C)(C)C)s1` | 7.996 |
| `Cc1nc(CN2Cc3nccn3CC(COCC3CC3)C2)cs1.O=C(O)C(F)(F)F` (stereo unspecified) | 14.22 |
| `Cc1cnn(CC2CCCN2C(=O)c2ccc(OC(C)C)nc2)c1` (stereo unspecified) | 0.5933 |
| `O=C(NC1CCCC1)O[C@H]1COCCN(c2nc3ccccc3s2)C1` | 20.7 |
| `CN(Cc1nc(-c2ccccc2)no1)Cc1cnc(N2CCOCC2)s1` | -12.98 |
| `Cl.Cn1nc(C2CCN(C(=O)CN3CCCCC3)CC2)c2cccnc21` | 12.77 |
| `CCC(=O)NC1CCN(c2cccc(CC)c2)CC1` | 0.7562 |
| `Cc1ccnc(NC(=O)c2ccc(Br)o2)c1` | 9.453 |
| `CCN(CC)CCc1nc2c([nH]1)CC(c1ccc(Cl)cc1)CNC2=O` (stereo unspecified) | -2.004 |
| `CCCN1CCCn2nc(CNC(=O)CC(C)n3ccnc3C)cc2C1` (stereo unspecified) | -11.47 and -3.497 |
| `CNS(=O)(=O)c1cccc(S(=O)(=O)Nc2ncc(C)s2)c1` | 6.885 |
| `Cc1ccc2c(c1)OCCN2C(=O)c1ccc(=O)n(C)c1` | -40.65 and -2.63 |
| `CC(=O)Nc1nc(C2CCN(C(=O)c3cncs3)CC2)cs1` | -11.21 |
| `Cc1ccc(CNC(=O)C2=NOC3(CCCNC3)C2)cc1` (stereo unspecified) | -27.51 |
| `CC(C)(Oc1ccc(C(N)=O)cc1)C(=O)N(CCC#N)CC1CCCO1` (stereo unspecified) | -8.603 |
| `N#Cc1ccc(OC2CCN(C(=O)c3cncc(Br)c3)CC2)nc1` | 26.65 |
| `Cc1nccn1C1(C(=O)O)CCN(Cc2ccc3nsnc3c2)CC1` | 4.682 |
| `[H][C@@]12CCN(S(=O)(=O)c3cccnc3)C[C@]1(c1nc(C)no1)CCO2` | 9.436 |
| `CCOCC1c2c(ncn2C(C)C)CCN1C(=O)CC` (stereo unspecified) | -16.32 |
| `Cc1nc(CN2CCN(S(=O)(=O)N3CCOCC3)CC2)oc1C` | -6.342 |
| `CCc1ccc(NC(=O)C(C)N2CCN(Cc3ncc[nH]3)CC2)cc1` (stereo unspecified) | -10.07 |
| `[H][C@]12CC[C@]([H])(CN(C3Cc4ccccc4C3)C1)N(C(=O)CO)C2` | 7.943 |
| `COc1cccc(OC)c1C(C(=O)O)N(C)Cc1c(C)n[nH]c1C` (stereo unspecified) | -15.97 |
| `COc1cccc(OCC2CCCN(C(=O)Cc3cccc(O)c3)C2)c1` (stereo unspecified) | 2.41 |
| `Cc1noc(C)c1CN1C[C@@H](C(=O)O)[C@H](C(C)C)C1` | 9.92 |
| `CC(C)[C@H](NS(C)(=O)=O)C(=O)NCc1cc(-c2ccccc2)nn1C` | -12.37 |
| `CCn1cc(-c2n[nH]c(=O)n2-c2ccc(OC)c(OC)c2)c(C)n1` | -6.931 and 0.674 |
| `CN1C(=O)C2(CCCN(C(=O)c3cccnc3O)C2)c2ccccc21` (stereo unspecified) | -13.64 |
| `O=C(O)C(F)(F)F.[H][C@@]12COC[C@]1(CN1CCOCC1)CN(S(=O)(=O)c1ccccc1)C2` | -13.81 |
| `O=C(O)C(F)(F)F.O=C1CC2(CCN(CC3CCOC3)CC2)c2ccccc2N1CC1CC1` (stereo unspecified) | -8.129 |
| `Cc1noc(C)c1C(=O)N1CCCC1(C)C(=O)NC1CCCC1` (stereo unspecified) | -2.903 |
| `O=C(NCC1CCOC1)c1ccc(-c2ccccc2)[nH]c1=O` (stereo unspecified) | -2.036 |
| `CC(=O)Nc1ccc(Oc2ccc(CN3CCCC3)cc2F)cc1` | 17.58 |
| `[H][C@@]12CN(C(=O)C3CCOCC3)C[C@@]1([H])N(CC)C(=O)CO2` | -24.81 |
| `CC(=O)c1ccc(C(=O)N(C)Cc2nc(-c3ccccn3)no2)s1` | -20.38 |
| `Cc1nc(C2CCN(C[C@H](C)CO)CC2)cc(N2CCOCC2)n1` | 0.8731 |
| `Br.COc1ccc(C(=O)CN(C2=NCCCCC2)c2ccccc2)cc1` | 10.32 |
| `CCn1nccc1CN(C)c1[nH]cnc2nc(C)nc1-2` | -16.35 |
| `Cc1nccn1-c1ccc(NC(=O)C2CCCN2CC2CC2)cc1` (stereo unspecified) | -22.76 |
| `CC(C)(C)n1ncc2c1NC(=O)CC2c1ccccc1` (stereo unspecified) | -4.47 |